Patent US8431611B2, “Artemisinin derivatives” (Johns Hopkins University, priority 2006, dated 2013)
Some results were stated once for a whole list of compounds, not compound by compound. For at least one compound, name, drawing or mass did not settle the structure.

System: T. gondii strain 2F
Assay: In vitro inhibition of T. gondii (growth inhibition assay)
Assay type: cell-based, Toxoplasma gondii
Conditions: summary of Table 1
Method: Normal human foreskin fibroblasts (American Type Culture Collection, Manassas, Va.) were used to grow tachyzoites and to test compounds for activity and cytotoxicity. Cells were maintained in Dulbecco's modified Eagle medium (Gibco, Grand Island, N.Y.) containing 10% fetal bovine serum (Atlas Biologicals, Fort Collins, Colo.), 25 mM HEPES (Gibco), 2 mM L-glutamine, 50 units of penicillin G per ml, and 50 μg of streptomycin sulfate per ml. A culture of the tachyzoites of T. gondii strain 2F, which constitutively expresses cytoplasmic β-galactosidase and is derived from strain RH (5), was a gift from Vern Carruthers, University of Michigan Medical School.
The compounds were tested for in vitro efficacy against T. gondii and cytotoxicity by previously published methods (9, 10). The median inhibitory dose (50% inhibitory dose [ID50]) and the median cytotoxic dose (50% toxic dose [TD50]) were calculated by extrapolation of the corresponding dose-response curve on a log-linear plot employing the portions of the curve that transected the 50% response point. For each compound, a therapeutic index (TI) was calculated by the formula TI=TD50/ID50.
Artemisinin was obtained from Holley Pharmaceuticals Co., Inc., Fullerton, Calif. Artemether was generously donated by Huiling Wang, University of Wuhan, China. Trimethoprim was purchased from Sigma Chemical Co. (St. Louis, Mo.). Chlorophenol red-β-D-galactopyranoside (Roche, Indianapolis, Ind.), 100 mM in 100 mM HEPES (pH 7.2), was stored frozen at −80° C. CellTiter 96 AQueous One Solution Reagent for determining cytotoxicity was purchased from Promega Corp., Madison, Wis.

Structure (SMILES)	concentration inhibiting toxoplasma replication
CC1CCC2C(C)C(CCCOC(=O)c3ccccc3Br)OC3OC4(C)CCC1C32OO4 (stereo not drawn) [Compound 2c]	less than 1 μg/ml
CC(C)=CCCC(C)CCOCCCC1OC2OC3(C)CCC4C(C)CCC(C1C)C24OO3 (stereo not drawn) [Compound 2d]	less than 1 μg/ml
CC1CCC2C(C)C(CCCOC(=O)c3ccccc3)OC3OC4(C)CCC1C32OO4 (stereo not drawn) [Compound 2b]	less than 1 μg/ml
